From the supplement of paper PMC12819154, “High-throughput peptide-centric local stability assay extends protein–ligand identification to membrane proteins, tissues and bacteria” (Nature Structural & Molecular Biology, 2025)
The other results are listed elsewhere or left out. Small differences around the control level are noise.

Sequences of proteins named here, by UniProt entry; tags and fusion partners are left off. A change or cut given only in a name is not applied to a line headed by its entry.
UniProt Q9D8L0: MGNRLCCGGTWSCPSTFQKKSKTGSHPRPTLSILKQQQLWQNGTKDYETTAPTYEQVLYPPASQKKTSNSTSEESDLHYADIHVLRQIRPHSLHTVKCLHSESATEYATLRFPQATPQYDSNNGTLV
UniProt Q9D8N1: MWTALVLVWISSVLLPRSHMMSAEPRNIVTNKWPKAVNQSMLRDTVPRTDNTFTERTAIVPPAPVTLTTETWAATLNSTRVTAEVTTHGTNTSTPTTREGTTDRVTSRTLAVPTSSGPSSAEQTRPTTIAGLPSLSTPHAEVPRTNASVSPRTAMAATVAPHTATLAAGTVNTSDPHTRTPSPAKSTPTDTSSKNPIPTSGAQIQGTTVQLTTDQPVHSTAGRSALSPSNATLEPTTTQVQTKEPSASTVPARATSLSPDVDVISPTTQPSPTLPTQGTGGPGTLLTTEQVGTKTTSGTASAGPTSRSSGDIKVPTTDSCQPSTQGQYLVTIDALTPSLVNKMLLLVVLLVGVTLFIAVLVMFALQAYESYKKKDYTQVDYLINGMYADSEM
UniProt Q9D361: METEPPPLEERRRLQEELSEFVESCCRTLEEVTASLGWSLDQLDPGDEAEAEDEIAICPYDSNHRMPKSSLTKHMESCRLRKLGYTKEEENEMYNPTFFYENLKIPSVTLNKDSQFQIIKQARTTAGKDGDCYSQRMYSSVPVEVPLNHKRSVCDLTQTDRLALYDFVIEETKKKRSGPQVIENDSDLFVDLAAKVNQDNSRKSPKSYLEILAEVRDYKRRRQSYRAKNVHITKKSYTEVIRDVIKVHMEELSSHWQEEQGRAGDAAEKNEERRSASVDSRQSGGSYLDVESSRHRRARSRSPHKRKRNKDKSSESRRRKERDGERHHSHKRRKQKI
UniProt Q9D5R2: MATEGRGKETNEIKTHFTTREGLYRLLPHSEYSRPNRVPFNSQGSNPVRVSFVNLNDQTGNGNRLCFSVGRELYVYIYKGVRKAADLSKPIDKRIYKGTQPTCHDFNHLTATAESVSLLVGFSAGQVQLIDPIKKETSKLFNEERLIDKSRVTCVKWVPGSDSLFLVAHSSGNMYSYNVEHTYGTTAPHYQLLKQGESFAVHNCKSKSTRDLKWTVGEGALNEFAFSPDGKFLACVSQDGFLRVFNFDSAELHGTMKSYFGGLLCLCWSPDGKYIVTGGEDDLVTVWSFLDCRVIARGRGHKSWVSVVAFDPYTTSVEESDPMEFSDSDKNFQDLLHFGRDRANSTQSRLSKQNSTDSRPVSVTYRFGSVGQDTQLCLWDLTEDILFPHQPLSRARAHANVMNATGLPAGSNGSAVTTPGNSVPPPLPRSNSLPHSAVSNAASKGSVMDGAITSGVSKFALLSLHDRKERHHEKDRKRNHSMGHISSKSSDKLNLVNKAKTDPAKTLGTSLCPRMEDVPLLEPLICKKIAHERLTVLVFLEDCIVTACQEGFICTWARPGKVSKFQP
UniProt Q9D816: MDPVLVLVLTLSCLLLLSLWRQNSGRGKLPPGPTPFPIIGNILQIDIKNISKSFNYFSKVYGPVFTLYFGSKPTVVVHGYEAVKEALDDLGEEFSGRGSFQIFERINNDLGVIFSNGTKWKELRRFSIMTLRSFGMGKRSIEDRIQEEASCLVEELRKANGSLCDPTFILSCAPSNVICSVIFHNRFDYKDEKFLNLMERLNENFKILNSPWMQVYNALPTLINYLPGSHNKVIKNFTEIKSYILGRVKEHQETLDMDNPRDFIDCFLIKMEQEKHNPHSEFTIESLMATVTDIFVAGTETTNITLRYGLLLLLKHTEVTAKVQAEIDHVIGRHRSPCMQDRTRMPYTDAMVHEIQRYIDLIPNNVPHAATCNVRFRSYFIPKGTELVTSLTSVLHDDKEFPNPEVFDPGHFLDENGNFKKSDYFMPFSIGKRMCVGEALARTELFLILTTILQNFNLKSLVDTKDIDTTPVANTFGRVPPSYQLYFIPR
UniProt Q9D8X5, whole entry: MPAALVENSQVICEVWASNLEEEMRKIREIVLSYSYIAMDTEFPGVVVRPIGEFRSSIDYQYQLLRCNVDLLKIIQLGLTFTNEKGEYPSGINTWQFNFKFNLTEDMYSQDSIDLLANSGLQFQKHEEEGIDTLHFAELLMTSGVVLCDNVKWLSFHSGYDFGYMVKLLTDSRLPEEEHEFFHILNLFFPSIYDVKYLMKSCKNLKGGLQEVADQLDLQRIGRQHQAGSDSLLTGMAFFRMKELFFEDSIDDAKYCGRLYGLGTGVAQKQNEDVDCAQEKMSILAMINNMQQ
UniProt Q9D1X0: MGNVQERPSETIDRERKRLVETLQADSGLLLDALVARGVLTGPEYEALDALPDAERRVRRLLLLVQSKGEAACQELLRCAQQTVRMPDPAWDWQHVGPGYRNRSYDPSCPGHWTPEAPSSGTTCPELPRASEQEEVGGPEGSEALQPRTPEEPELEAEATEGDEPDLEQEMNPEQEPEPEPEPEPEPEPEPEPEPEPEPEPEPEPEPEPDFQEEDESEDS
UniProt Q9D8Z1: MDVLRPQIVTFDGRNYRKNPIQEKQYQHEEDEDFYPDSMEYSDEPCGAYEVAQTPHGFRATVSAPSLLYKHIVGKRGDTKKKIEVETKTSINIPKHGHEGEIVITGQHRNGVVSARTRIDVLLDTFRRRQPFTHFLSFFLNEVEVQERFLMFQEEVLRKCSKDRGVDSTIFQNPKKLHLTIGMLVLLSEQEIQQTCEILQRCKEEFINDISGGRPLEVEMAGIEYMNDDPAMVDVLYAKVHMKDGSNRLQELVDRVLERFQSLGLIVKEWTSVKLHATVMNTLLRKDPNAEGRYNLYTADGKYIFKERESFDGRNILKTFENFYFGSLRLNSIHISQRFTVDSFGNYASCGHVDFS
UniProt Q9D8U8: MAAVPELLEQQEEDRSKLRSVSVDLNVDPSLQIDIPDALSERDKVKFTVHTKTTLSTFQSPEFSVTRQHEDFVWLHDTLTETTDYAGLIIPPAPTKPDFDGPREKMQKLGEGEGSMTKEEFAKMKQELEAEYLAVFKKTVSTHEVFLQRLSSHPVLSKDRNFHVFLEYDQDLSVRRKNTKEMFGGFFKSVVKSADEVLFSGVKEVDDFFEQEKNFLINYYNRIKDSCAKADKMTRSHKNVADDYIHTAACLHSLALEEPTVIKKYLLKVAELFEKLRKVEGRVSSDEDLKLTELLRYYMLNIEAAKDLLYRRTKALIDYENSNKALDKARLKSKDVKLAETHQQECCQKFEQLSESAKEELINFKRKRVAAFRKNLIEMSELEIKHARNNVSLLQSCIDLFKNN
UniProt Q9D8S9: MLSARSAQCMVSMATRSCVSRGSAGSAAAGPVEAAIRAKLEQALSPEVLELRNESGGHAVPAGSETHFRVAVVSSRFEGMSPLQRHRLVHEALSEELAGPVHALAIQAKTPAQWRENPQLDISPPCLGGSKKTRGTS
UniProt Q9D1I6: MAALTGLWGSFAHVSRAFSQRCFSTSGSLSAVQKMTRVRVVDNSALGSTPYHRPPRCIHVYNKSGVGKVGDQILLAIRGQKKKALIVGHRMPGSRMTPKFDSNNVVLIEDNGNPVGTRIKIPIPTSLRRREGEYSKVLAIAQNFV

Compound: CN[C@@H]1C[C@H]2O[C@@](C)([C@@H]1OC)n1c3ccccc3c3c4c(c5c6ccccc6n2c5c31)C(=O)NC4 [staurosporine]
Assay: log2 fold change of tryptic peptide abundance, ligand vs vehicle (limited proteolysis) (log2 ratio); higher = more trypsin-susceptible (destabilized)
Details: ligand concentration: 20 uM; sample: mouse liver crude lysate; replicate design: treated separately

Target | log2 fold change
UniProt Q9D8L0 (peptide sequence: KTSNSTSEESDLHYADIHVLR, peptide start residue: 66) | -0.194
UniProt Q9D8N1 (peptide sequence: VTAEVTTHGTNTSTPTTR, peptide start residue: 81) | -0.119
UniProt Q9D361 (peptide sequence: MYSSVPVEVPLNHKR, peptide start residue: 137) | 0.22
UniProt Q9D5R2 (peptide sequence: AADLSKPIDKR, peptide start residue: 84) | -0.219
UniProt Q9D816 (peptide sequence: FSIMTLR, peptide start residue: 126) | -0.241
UniProt Q9D8X5 (peptide sequence: MKELFFEDSIDDAK, peptide start residue: 241) | -0.443
UniProt Q9D1X0 (peptide sequence: MPDPAWDWQHVGPGYR, peptide start residue: 86) | 0.185
UniProt Q9D8Z1 (peptide sequence: TRIDVLLDTFR, peptide start residue: 117) | -0.161
UniProt Q9D8U8 (peptide sequence: EELINFK, peptide start residue: 359) | 0.297
UniProt Q9D8S9 (peptide sequence: LVHEALSEELAGPVHALAIQAK, peptide start residue: 88) | 0.142
UniProt Q9D1I6 (peptide sequence: VVDNSALGSTPYHRPPR, peptide start residue: 40) | 0.0687
